Data source: PubChem BioAssay AID686938 (Drosophila RNAi Screening Center, 2013)

Aim: 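Knock-downs reducing store-operated calcium influx in Drosophila cells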 (primary screen)
Cells: Drosophila S2R+ cells
Reagents: long dsRNA against Drosophila genes, about 0.25 µg dsRNA per well, roughly 10,000 cells
Duration: 5 days of knock-down before the calcium assay
Treatment: thapsigargin (SERCA pump blocker) to empty calcium stores; entry signal taken 4 min after adding it
Measured: 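Duplicate raw fluo-4 intensities per well from a plate reader, at rest and four minutes after thapsigargin emptied calcium stores; entry-to-rest ratio filled for only some wells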
Reading the numbers: calcium entry signal: higher = stronger calcium signal after store depletion; resting calcium signal: higher = higher resting calcium signal
Units: calcium entry signal in fluorescence units; resting calcium signal in fluorescence units
Call rule: 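Called when the plate z-score of the entry-to-rest ratio, mean of duplicates, falls below −3; wells with low overall dye signal (Fmax z below −2) or more than five off-targets excluded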
Meaning of the calls: active = strongly reduced calcium entry; inactive = no strong reduction
The screen tested about 23,000 reagents; below is a random part of those with a known target gene and a result. In the full data, 75 (0.33%) got an active call. 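Raw plate signals without normalisation; calls rest on plate z-scores that were not deposited; ratio present for only 364 wells.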 The numbers tell different reagents against one gene apart. A plus sign joins genes that one reagent is predicted to hit. Not given: the dose of the treatment.

Against Sec8, the values are calcium entry signal, replicate 1 = 3.88e7; calcium entry signal, replicate 2 = 4.16e7; resting calcium signal, replicate 1 = 1.80e7; resting calcium signal, replicate 2 = 1.90e7; inactive.
Against ldd #1 the deposit lists calcium entry signal, replicate 1 = 3.41e7; calcium entry signal, replicate 2 = 3.62e7; resting calcium signal, replicate 1 = 1.93e7; resting calcium signal, replicate 2 = 1.88e7; inactive.
With knock-down of ldd #2, the screen gave calcium entry signal, replicate 1 = 4.08e7; calcium entry signal, replicate 2 = 3.50e7; resting calcium signal, replicate 1 = 2.00e7; resting calcium signal, replicate 2 = 1.58e7; inactive.
corn #1 showed calcium entry signal, replicate 1 = 4.73e7; calcium entry signal, replicate 2 = 3.23e7; resting calcium signal, replicate 1 = 3.12e7; resting calcium signal, replicate 2 = 1.43e7; inactive.
For corn #2, the values are calcium entry signal, replicate 1 = 3.84e7; calcium entry signal, replicate 2 = 5.34e7; resting calcium signal, replicate 1 = 1.91e7; resting calcium signal, replicate 2 = 3.11e7; inactive.
CG43085 showed calcium entry signal, replicate 1 = 3.45e7; calcium entry signal, replicate 2 = 3.02e7; resting calcium signal, replicate 1 = 1.60e7; resting calcium signal, replicate 2 = 1.60e7; inactive.
With knock-down of Nufip, the record shows calcium entry signal, replicate 1 = 4.63e7; calcium entry signal, replicate 2 = 4.86e7; resting calcium signal, replicate 1 = 2.07e7; resting calcium signal, replicate 2 = 3.29e7; inactive.

Just “calcium entry signal, replicate 1”, for 2 of the entries above:
ldd #2 = 4.08e7
corn #1 = 4.73e7

Further records follow:
CG7220 #1 showed calcium entry signal, replicate 1 = 4.29e7; calcium entry signal, replicate 2 = 3.21e7; resting calcium signal, replicate 1 = 1.79e7; resting calcium signal, replicate 2 = 1.31e7; inactive.
After knock-down of CG7220 #2, the record shows calcium entry signal, replicate 1 = 4.37e7; calcium entry signal, replicate 2 = 3.88e7; resting calcium signal, replicate 1 = 2.01e7; resting calcium signal, replicate 2 = 1.69e7; inactive.
After knock-down of dock the results were calcium entry signal, replicate 1 = 5.21e7; resting calcium signal, replicate 1 = 2.87e7; inactive.
For CG1889 + CG43386, the values are calcium entry signal, replicate 1 = 3.23e7; calcium entry signal, replicate 2 = 5.22e7; resting calcium signal, replicate 1 = 1.74e7; resting calcium signal, replicate 2 = 2.29e7; inactive.
Depletion of l(2)k09022 resulted in: calcium entry signal, replicate 1 = 1.91e7; resting calcium signal, replicate 1 = 1.05e7; inactive.
